Data on 2 substances can be found in PMC7484505.

Sequences of proteins named here, by UniProt entry; tags and fusion partners are left off. A change or cut given only in a name is not applied to a line headed by its entry.
UniProt Q8NER1: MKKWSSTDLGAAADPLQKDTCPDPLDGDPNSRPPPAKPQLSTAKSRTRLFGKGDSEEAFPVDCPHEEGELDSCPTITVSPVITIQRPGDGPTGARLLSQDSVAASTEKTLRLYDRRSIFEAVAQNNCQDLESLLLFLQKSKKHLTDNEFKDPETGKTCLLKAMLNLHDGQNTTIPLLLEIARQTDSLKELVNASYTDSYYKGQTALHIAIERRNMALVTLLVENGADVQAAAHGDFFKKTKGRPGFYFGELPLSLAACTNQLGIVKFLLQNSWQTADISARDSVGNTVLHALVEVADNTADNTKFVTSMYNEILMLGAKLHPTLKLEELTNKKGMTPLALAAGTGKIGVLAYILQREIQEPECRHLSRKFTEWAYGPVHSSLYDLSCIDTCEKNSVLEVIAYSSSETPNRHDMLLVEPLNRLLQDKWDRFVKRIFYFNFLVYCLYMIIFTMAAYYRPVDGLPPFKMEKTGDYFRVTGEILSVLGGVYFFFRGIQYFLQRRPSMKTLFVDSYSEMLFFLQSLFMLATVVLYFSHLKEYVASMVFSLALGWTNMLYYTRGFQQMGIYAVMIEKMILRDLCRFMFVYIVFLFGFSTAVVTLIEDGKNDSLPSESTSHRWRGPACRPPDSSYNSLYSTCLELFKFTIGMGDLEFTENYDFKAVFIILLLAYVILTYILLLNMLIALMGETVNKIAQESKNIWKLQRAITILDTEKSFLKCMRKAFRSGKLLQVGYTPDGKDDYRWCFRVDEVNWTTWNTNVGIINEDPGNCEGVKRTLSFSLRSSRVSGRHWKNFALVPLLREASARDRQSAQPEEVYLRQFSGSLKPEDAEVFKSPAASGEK

No constants are given. Whether binding was seen depends on the method and setting. Some results given as binding are weak or reduced against the parent protein; the word gives no strength.

In assay [1] the target is hNav1.7^GFP (human) (UniProt Q15858). In words: condition: only after 1-h incubation with 0.1% LiDS at 37°C (partial denaturation); native gel or EMSA; hrCN-PAGE of the same digitonin extracts after partial denaturation (1-h incubation with 0.1% LiDS at 37°C); GFP fluorescence scanning.
In assay [2] the target is hTRPV1^GFP (human) (UniProt Q8NER1). As to the kind of experiment: native gel or EMSA; hrCN-PAGE of the same digitonin extracts after partial denaturation (1-h incubation with 0.1% LiDS at 37°C); GFP fluorescence scanning. A general note: In EMSA bound probe runs differently from free probe, usually more slowly.

In the case of “hNav1.7^GFP (from UniProt Q15858-3 1-1977)”, in assay [1], the binding entry is on record as “no binding”.

Take “hTRPV1^GFP (from UniProt Q8NER1-1 1-839)”: the binding entry in assay [2] was “binds”.
